Data taken from article doi:10.1101/2020.04.03.023721.
These are yes or no findings as the source states them, for the method shown. In cells and extracts the contact can be indirect. Some results given as binding are weak or reduced against the parent protein; the word gives no strength. Sequences can lack the tags named with a protein.

Protein sequences, listed by entry. Tags and fused reporters are not part of them.
UniProt P49023: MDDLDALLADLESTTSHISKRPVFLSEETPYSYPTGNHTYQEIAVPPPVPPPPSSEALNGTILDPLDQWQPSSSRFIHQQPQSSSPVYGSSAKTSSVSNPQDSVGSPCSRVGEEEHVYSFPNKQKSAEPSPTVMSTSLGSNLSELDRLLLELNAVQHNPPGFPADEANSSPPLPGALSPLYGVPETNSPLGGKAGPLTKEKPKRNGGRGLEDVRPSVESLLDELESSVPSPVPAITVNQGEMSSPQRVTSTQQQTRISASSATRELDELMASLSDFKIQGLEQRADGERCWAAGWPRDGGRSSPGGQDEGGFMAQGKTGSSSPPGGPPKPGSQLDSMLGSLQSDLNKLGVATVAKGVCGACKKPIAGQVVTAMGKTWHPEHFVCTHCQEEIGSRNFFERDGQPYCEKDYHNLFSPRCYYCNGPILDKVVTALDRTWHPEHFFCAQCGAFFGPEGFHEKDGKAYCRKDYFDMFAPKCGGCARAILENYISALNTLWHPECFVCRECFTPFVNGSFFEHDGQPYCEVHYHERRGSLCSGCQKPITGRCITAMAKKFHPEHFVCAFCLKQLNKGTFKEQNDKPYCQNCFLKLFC

Tests used:
Assay in all cases: co-IP
Flag-P2X7(35-595) = biological target: T1, Flag-P2X7(35-595) (UniProt Q99572)
T1 sequence: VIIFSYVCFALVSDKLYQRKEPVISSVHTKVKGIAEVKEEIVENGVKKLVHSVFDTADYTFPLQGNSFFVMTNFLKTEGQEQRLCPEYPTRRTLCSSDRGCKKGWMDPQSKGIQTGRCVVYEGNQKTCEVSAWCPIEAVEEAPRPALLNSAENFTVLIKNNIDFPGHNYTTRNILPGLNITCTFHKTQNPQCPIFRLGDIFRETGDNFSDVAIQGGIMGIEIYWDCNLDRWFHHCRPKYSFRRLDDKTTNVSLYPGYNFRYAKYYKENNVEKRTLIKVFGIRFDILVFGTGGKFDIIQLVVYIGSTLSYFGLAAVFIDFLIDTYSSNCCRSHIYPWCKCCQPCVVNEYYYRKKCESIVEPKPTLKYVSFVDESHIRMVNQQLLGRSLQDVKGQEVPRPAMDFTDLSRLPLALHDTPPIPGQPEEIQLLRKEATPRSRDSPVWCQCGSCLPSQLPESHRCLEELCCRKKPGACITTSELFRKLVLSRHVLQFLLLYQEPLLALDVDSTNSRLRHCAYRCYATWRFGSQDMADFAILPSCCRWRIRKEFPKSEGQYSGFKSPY

[1] = biological target: T2, Flag-UPS13(301-863) (human) (UniProt Q92995)
T2 sequence: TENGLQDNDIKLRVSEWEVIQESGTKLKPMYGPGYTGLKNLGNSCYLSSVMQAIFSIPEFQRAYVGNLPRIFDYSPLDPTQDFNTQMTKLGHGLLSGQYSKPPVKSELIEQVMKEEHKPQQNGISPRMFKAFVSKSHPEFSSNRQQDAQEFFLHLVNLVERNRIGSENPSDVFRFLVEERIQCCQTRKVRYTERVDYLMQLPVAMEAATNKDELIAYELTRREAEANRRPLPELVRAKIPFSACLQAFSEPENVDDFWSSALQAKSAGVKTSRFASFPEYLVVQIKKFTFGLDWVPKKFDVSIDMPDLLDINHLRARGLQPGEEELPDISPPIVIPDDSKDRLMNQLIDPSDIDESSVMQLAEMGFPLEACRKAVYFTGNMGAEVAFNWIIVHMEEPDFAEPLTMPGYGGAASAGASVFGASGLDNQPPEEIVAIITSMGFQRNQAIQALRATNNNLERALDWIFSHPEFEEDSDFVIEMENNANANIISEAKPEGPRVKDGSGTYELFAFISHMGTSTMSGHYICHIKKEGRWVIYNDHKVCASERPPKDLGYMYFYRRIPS

Flag-P2X7(29-595) = biological target: T3, Flag-P2X7(29-595) (UniProt Q99572)
T3 sequence: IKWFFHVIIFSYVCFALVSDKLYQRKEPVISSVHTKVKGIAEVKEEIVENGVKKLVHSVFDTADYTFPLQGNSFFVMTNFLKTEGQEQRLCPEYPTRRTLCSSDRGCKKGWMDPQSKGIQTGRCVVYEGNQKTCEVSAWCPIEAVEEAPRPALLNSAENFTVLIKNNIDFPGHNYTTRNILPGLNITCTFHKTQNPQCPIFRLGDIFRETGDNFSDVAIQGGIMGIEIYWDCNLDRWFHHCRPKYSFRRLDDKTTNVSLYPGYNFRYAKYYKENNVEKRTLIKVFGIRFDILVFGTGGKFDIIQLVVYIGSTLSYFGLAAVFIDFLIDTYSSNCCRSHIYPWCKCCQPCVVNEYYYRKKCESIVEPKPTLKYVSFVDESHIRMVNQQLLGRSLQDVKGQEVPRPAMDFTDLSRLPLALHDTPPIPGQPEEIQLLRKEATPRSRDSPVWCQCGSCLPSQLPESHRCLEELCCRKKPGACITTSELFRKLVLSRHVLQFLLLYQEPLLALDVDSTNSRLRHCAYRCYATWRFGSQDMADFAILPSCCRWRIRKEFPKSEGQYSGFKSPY

Flag-P2X7(27-595) = biological target: T4, Flag-P2X7(27-595) (UniProt Q99572)
T4 sequence: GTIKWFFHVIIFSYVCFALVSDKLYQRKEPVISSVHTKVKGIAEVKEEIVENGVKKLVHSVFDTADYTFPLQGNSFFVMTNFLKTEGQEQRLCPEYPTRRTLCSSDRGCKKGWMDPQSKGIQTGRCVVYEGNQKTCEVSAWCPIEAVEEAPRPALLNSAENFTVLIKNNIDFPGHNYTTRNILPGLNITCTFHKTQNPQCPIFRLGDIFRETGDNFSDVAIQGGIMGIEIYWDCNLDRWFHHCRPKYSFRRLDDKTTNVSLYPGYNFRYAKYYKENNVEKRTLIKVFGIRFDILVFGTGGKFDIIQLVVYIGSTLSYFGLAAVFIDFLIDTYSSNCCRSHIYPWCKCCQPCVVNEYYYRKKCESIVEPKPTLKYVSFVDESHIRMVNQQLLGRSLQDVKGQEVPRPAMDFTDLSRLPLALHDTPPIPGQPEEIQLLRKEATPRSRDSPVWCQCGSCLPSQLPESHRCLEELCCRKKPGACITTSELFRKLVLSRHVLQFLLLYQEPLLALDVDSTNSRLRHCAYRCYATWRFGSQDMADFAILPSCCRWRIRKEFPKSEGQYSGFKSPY

With HA-Paxillin (from UniProt P49023 1-591) the binding (Flag-P2X7(35-595)) was “no binding”, the binding [1] was “no binding” and the binding (Flag-P2X7(29-595)) was “binds”. For the same substance, the binding (Flag-P2X7(27-595)) was “binds”.
